Experimental data reported in the supplement of paper PMC9454738.
Structures can show the parent of a compound that is named as a salt. ± gives the standard deviation of the averaged measurements. The list shows a part of the results. Repeats in this data set agree poorly, so a single value says little.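 Triple-negative MDA-MB-231 breast cancer cells and their brain-metastatic MDA-MB-231BRM derivative each stably expressed empty vector, full-length GLI1 or truncated tGLI1. CellTiter-Blue measured viability at 48 h relative to 1% DMSO vehicle. Compounds reducing viability 20% more in tGLI1 cells than in vector and GLI1 cells counted as tGLI1-selective.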

What was measured:
Test in all cases: cell viability relative to vehicle (DMSO) control (fraction); higher = more viable cells (less growth inhibition)
Settings in all cases: treatment time 48 h
MDA-MB-231 GLI1 = tested on: MDA-MB-231 GLI1
MDA-MB-231 Vector = tested on: MDA-MB-231 Vector
MDA-MB-231 tGLI1 = tested on: MDA-MB-231 tGLI1
MDA-MB-231BRM GLI1 = tested on: MDA-MB-231BRM GLI1
MDA-MB-231BRM Vector = tested on: MDA-MB-231BRM Vector
MDA-MB-231BRM tGLI1 = tested on: MDA-MB-231BRM tGLI1

| Structure (SMILES) | cell viability (MDA-MB-231 GLI1; 0.05 µM) | cell viability (MDA-MB-231 GLI1; 0.5 µM) | cell viability (MDA-MB-231 GLI1; 5 µM) | cell viability (MDA-MB-231 Vector; 0.05 µM) | cell viability (MDA-MB-231 Vector; 0.5 µM) | cell viability (MDA-MB-231 Vector; 5 µM) | cell viability (MDA-MB-231 tGLI1; 0.05 µM) | cell viability (MDA-MB-231 tGLI1; 0.5 µM) | cell viability (MDA-MB-231 tGLI1; 5 µM) | cell viability (MDA-MB-231BRM GLI1; 0.05 µM) | cell viability (MDA-MB-231BRM GLI1; 0.5 µM) | cell viability (MDA-MB-231BRM GLI1; 5 µM) | cell viability (MDA-MB-231BRM Vector; 0.05 µM) | cell viability (MDA-MB-231BRM Vector; 0.5 µM) | cell viability (MDA-MB-231BRM Vector; 5 µM) | cell viability (MDA-MB-231BRM tGLI1; 0.05 µM) | cell viability (MDA-MB-231BRM tGLI1; 0.5 µM) | cell viability (MDA-MB-231BRM tGLI1; 5 µM) |
| --- | --- | --- | --- | --- | --- | --- | --- | --- | --- | --- | --- | --- | --- | --- | --- | --- | --- | --- |
| Cc1cc2c(F)c(Oc3ncnn4cc(OC[C@@H](C)O)c(C)c34)ccc2[nH]1 | 1.52 | 1.81 | 0.97 | 1.43 | 1.27 | 0.685 | 1.22 | 1.54 | 0.709 | 0.926 | 0.933 | 0.982 | 0.939 | 0.925 | 0.964 | 0.947 | 0.964 | 0.991 |
| O=C(Nc1ccc(OC(F)(F)F)cc1)c1sccc1NCc1ccnc2ccccc12 | 1.22 | 1.28 | 0.79 | 1.79 | 0.924 | 0.628 | 1.14 | 1.21 | 0.39 | 1.13 | 1.07 | 0.939 | 0.579 | 0.962 | 0.943 | 0.936 | 1.08 | 0.818 |
| COCCOc1ccc2c(c1)ncn2-c1ccc2cccc(N3CCC(N)CC3)c2n1 | 1.34 | 1.28 | 0.298 | 1.93 | 1.25 | 0.263 | 0.597 | 1.19 | 0.238 | 1.29 | 1.16 | 0.912 | 1.18 | 1.12 | 1.04 | 0.626 | 1.17 | 0.843 |
| Cn1cnc2c(F)c(Nc3ccc(Br)cc3F)c(C(=O)NOCCO)cc21 | 1.15 | 1.3 | 0.662 | 1.24 | 0.946 | 0.719 | 1.09 | 1.07 | 0.779 | 1.09 | 1.02 | 1 | 1.13 | 1.17 | 1.06 | 1.05 | 0.991 | 0.873 |
| O=C(O)c1ccc(-c2c[nH]c3ncc(-c4ccccc4)cc23)cc1C1CCCC1 | 1.24 | 1.7 | 1.08 | 1.57 | 1.29 | 1.16 | 1.46 | 1.41 | 1.19 | 1 | 0.942 | 1.06 | 1.19 | 1.06 | 1.19 | 1.04 | 1 | 1.07 |
| C=CCc1ccc(O)c(-c2ccc(O)c(CC=C)c2)c1 [Honokiol] | 1.11 ± 0.08 | 1.033 ± 0.00034 | 1.05 ± 0.043 | 1.08 ± 0.075 | 1.01 ± 0.11 | 1.13 ± 0.11 | 1.11 ± 0.079 | 0.985 ± 0.04 | 1.06 ± 0.26 | 0.979 ± 0.029 | 0.99 ± 0.011 | 0.954 ± 0.048 | 1.05 ± 0.11 | 1.02 ± 0.034 | 0.9877 ± 0.0025 | 1.02 ± 0.021 | 0.959 ± 0.048 | 0.97 ± 0.072 |
| COc1cc2c(Nc3ccc(NC(=O)c4ccccc4)cc3)ncnc2cc1OCCCN1CCOCC1 | 1.35 | 1.32 | 0.97 | 1.51 | 0.914 | 0.66 | 1.2 | 1.06 | 0.701 | 0.948 | 0.82 | 0.664 | 0.901 | 0.924 | 0.793 | 0.939 | 0.881 | 0.634 |
| C[C@@H](O[C@H]1OCCN(Cc2n[nH]c(=O)[nH]2)[C@H]1c1ccc(F)cc1)c1cc(C(F)(F)F)cc(C(F)(F)F)c1 [Aprepitant (MK-0869)] | 1.24 | 1.04 | 0.928 | 0.934 | 1.41 | 0.977 | 1.03 | 1.12 | 0.963 | 0.985 | 1 | 0.924 | 1.02 | 0.984 | 0.823 | 1.08 | 0.98 | 0.981 |
| C[C@@H](N)[C@H]1CC[C@H](C(=O)Nc2ccncc2)CC1 | 1.48 | 1.83 | 1.75 | 1.54 | 1.33 | 1.1 | 1.23 | 1.49 | 1.35 | 0.916 | 0.946 | 1.08 | 0.885 | 0.989 | 1.09 | 0.915 | 0.996 | 1.11 |
| Cc1nc(Nc2ncc(C(=O)Nc3c(C)cccc3Cl)s2)cc(N2CCN(CCO)CC2)n1 [Dasatinib] | 0.582 | 0.592 | 0.423 | 0.561 | 0.481 | 0.326 | 0.474 | 0.587 | 0.26 | 0.833 | 0.774 | 0.834 | 0.899 | 0.768 | 0.808 | 0.725 | 0.721 | 0.731 |
| O=C(NCc1ccccc1)c1csc(Nc2ccncn2)n1 [Thiazovivin] | 1.51 | 1.51 | 1.63 | 2.07 | 1.36 | 1.33 | 1.33 | 1.43 | 0.762 | 1.14 | 1.19 | 0.944 | 1.24 | 1.11 | 1.05 | 1.07 | 0.68 | 1.03 |
| CCCC(CCC)C(=O)O [Valproic acid sodium salt (Sodium valproate)] | 1.04 | 1.05 | 1.14 | 1.27 | 1.13 | 1.25 | 1.11 | 0.971 | 0.982 | 1.06 | 0.997 | 0.967 | 1.07 | 1.02 | 1.01 | 1.07 | 1.05 | 1.06 |
| CN1CCN(c2nc(C3=C(c4c[nH]c5ccccc45)C(=O)NC3=O)c3ccccc3n2)CC1 [Sotrastaurin] | 1.14 | 1.06 | 1.03 | 1.03 | 1.09 | 0.877 | 1.16 | 1 | 1.2 | 1.01 | 0.993 | 1.05 | 1.01 | 0.692 | 0.63 | 1 | 1.05 | 1.02 |
| CNC(=O)c1cc(Oc2ccc(NC(=O)Nc3ccc(Cl)c(C(F)(F)F)c3)cc2)ccn1 [Sorafenib (Nexavar)] | 1.42 | 0.969 | 0.884 | 1.42 | 1.19 | 0.786 | 1.43 | 0.948 | 0.751 | 1.1 | 1 | 0.881 | 1.06 | 1 | 0.908 | 1.06 | 1.02 | 0.932 |
| Nc1nc(Nc2ccc3c(c2)CCC(N2CCCC2)CC3)nn1-c1cc2c(nn1)-c1ccccc1CCC2 (stereo not drawn) | 1.21 | 1.1 | -0.19 | 1.14 | 1.05 | -0.192 | 1.28 | 0.912 | -0.168 | 0.977 | 1.1 | 0.598 | 0.968 | 0.969 | 0.472 | 0.955 | 0.95 | 0.626 |
| COc1cc2nccc(Oc3ccc(NC(=O)NC4CC4)c(Cl)c3)c2cc1C(N)=O [Lenvatinib (E7080)] | 1.55 | 1.46 | 1.28 | 1.47 | 1.22 | 1.02 | 1.07 | 1.55 | 0.89 | 0.992 | 0.995 | 0.971 | 0.981 | 1.07 | 0.94 | 1.08 | 0.975 | 0.927 |
| Cn1cc(-c2ccc3nnc(C(F)(F)c4ccc5ncccc5c4)n3n2)cn1 | 1.51 | 1.5 | 1.47 | 1.48 | 1.24 | 1.16 | 1.23 | 1.54 | 1.07 | 0.988 | 1.03 | 0.941 | 0.964 | 1.05 | 0.933 | 1.02 | 0.932 | 0.924 |
| Cc1nc(Nc2ncc(C(=O)Nc3c(C)cccc3Cl)s2)cc(N2CCN(CCO)CC2)n1 | 0.957 | 0.451 | 0.367 | 1.12 | 0.46 | 0.247 | 0.808 | 0.395 | 0.334 | 0.797 | 0.628 | 0.638 | 0.936 | 0.635 | 0.625 | 0.803 | 0.665 | 0.603 |
| C=CC(=O)Nc1cc(Nc2nccc(-c3cn(C)c4ccccc34)n2)c(OC)cc1N(C)CCN(C)C | 1.17 | 1.18 | -0.0524 | 0.864 | 0.684 | -0.00378 | 1.18 | 0.985 | 0.055 | 0.983 | 0.793 | 0.572 | 0.984 | 0.832 | 0.586 | 1 | 0.803 | 0.514 |
| CNC(=O)c1cc(Oc2ccc(NC(=O)Nc3cc(C(C)(C)C)nn3-c3ccc4ncccc4c3)c(F)c2)ccn1 [DCC-2036 (Rebastinib)] | 1.29 | 1.08 | 0.0137 | 1.23 | 1.11 | 0.118 | 1.36 | 0.968 | 0.0451 | 1.07 | 1.15 | 0.895 | 1.06 | 1.1 | 0.882 | 1.08 | 1.18 | 0.854 |
| CC(C)NC[C@@H](C(=O)N1CCN(c2ncnc3c2[C@H](C)C[C@H]3O)CC1)c1ccc(Cl)cc1 | 1.26 | 1.06 | 0.937 | 1.26 | 1.09 | 0.88 | 1.26 | 1.11 | 1.09 | 0.989 | 0.94 | 1.02 | 0.957 | 1.07 | 0.57 | 0.99 | 0.994 | 1.02 |

Taken from above (two entries):

| Structure (SMILES) | cell viability (MDA-MB-231 GLI1; 0.05 µM) | cell viability (MDA-MB-231 GLI1; 0.5 µM) | cell viability (MDA-MB-231 GLI1; 5 µM) | cell viability (MDA-MB-231 Vector; 0.05 µM) | cell viability (MDA-MB-231 Vector; 0.5 µM) | cell viability (MDA-MB-231 Vector; 5 µM) | cell viability (MDA-MB-231 tGLI1; 0.05 µM) | cell viability (MDA-MB-231 tGLI1; 0.5 µM) | cell viability (MDA-MB-231 tGLI1; 5 µM) | cell viability (MDA-MB-231BRM GLI1; 0.05 µM) | cell viability (MDA-MB-231BRM GLI1; 0.5 µM) | cell viability (MDA-MB-231BRM GLI1; 5 µM) | cell viability (MDA-MB-231BRM Vector; 0.05 µM) | cell viability (MDA-MB-231BRM Vector; 0.5 µM) | cell viability (MDA-MB-231BRM Vector; 5 µM) | cell viability (MDA-MB-231BRM tGLI1; 0.05 µM) | cell viability (MDA-MB-231BRM tGLI1; 0.5 µM) | cell viability (MDA-MB-231BRM tGLI1; 5 µM) |
| --- | --- | --- | --- | --- | --- | --- | --- | --- | --- | --- | --- | --- | --- | --- | --- | --- | --- | --- |
| C[C@@H](O[C@H]1OCCN(Cc2n[nH]c(=O)[nH]2)[C@H]1c1ccc(F)cc1)c1cc(C(F)(F)F)cc(C(F)(F)F)c1 [Aprepitant (MK-0869)] | 1.24 | 1.04 | 0.928 | 0.934 | 1.41 | 0.977 | 1.03 | 1.12 | 0.963 | 0.985 | 1 | 0.924 | 1.02 | 0.984 | 0.823 | 1.08 | 0.98 | 0.981 |
| C[C@@H](N)[C@H]1CC[C@H](C(=O)Nc2ccncc2)CC1 | 1.48 | 1.83 | 1.75 | 1.54 | 1.33 | 1.1 | 1.23 | 1.49 | 1.35 | 0.916 | 0.946 | 1.08 | 0.885 | 0.989 | 1.09 | 0.915 | 0.996 | 1.11 |
